Test results published in publication PMC5304334, “Antifouling potential of Nature-inspired sulfated compounds” (Scientific Reports, 2017).

Test system: Mytilus galloprovincialis plantigrades
Assay: Anti-settlement bioassay with mussel plantigrades (effectiveness and mortality)
Type: in vivo
Conditions: for Therapeutic ratio LC50/EC50 (as printed in text with μM): LC50 taken as >500 μM
Procedure: M. galloprovincialis juvenile (0.5 cm shell length approximately) aggregates were collected from mussel beds from the intertidal rocky shore, during low neap tides at Memória beach, Matosinhos, Portugal (41°13′59″N; 8°43′28″W), and immediately transported to the laboratory. M. galloprovincialis plantigrade post-larvae (0.5–2 mm) were screened among the small mussel aggregates in a binocular magnifier (Olympus SZX2-ILLT), gently washed with filtered seawater to remove organic debris and sand particles and isolated in a petri dish with filtered seawater immediately before the bioassays.
For the screening bioassay, competent M. galloprovincialis plantigrades (showing exploring behavior, ie, moving their foot searching for the appropriate substrate to settle) were selected and exposed to the series of sulfated compounds 1–13 at two concentrations (250 and 50 μM) in 24-well microplates for 15 h, at 18 ± 1 °C, in the darkness. Bioassays time frame was selected based on preliminary bioassays to ensure that the response measured is reflecting the compounds effect. Test solutions were prepared in filtered seawater (previously treated by UV light, and carbon filters and mechanically filtered with […] filter before use) and obtained by dilution of the compounds stock solutions (50 mM) in ultra-pure water. Four well replicates were used per condition with five plantigrades per well and 2.5 mL of test solution. A negative control, with ultra-pure water was included in all bioassays, as well as a positive control with 5 μM CuSO4 (a potent AF agent). At the end of the exposure period, the anti-settlement activity was determined by the presence/absence of byssal threads produced by each individual efficiently attached for all the conditions tested.
Data from the anti-settlement and antibacterial screenings were analyzed using a one-way analysis of variance (ANOVA) followed by a Dunnett test against the control (p < 0.05). […]

Structure (SMILES) | Therapeutic ratio LC50/EC50 (as printed in text with μM) [µM] | LC50/EC50, therapeutic ratio (LC50 of sulfated compounds taken as >500 μM)
O=c1c2ccc(O[C@@H]3O[C@H](COS(=O)(=O)O)[C@@H](OS(=O)(=O)O)[C@H](OS(=O)(=O)O)[C@H]3OS(=O)(=O)O)cc2oc2cc(O[C@@H]3O[C@H](COS(=O)(=O)O)[C@@H](OS(=O)(=O)O)[C@H](OS(=O)(=O)O)[C@H]3OS(=O)(=O)O)ccc12 [Compound 6] | > 21.56 | 
O=C(O)c1cc(OS(=O)(=O)O)c(OS(=O)(=O)O)c(OS(=O)(=O)O)c1 [Compound 12, gallic acid persulfate] | > 26.61 | 
N#Cc1c(-c2ccc(Cl)cc2)[nH]c(C(F)(F)F)c1Br [ECONEA®] |  | 26.86
